Data as given in PubChem BioAssay AID1508588 (Peter MacCallum Cancer Centre, 2020)
Test: 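Which gene losses make BRAF-mutant melanoma cells more responsive to vemurafenib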 (primary screen). Cell system: human WM266.4 melanoma cells (BRAF V600 mutant). Reagents: siRNA pool against human genes, 40 nM. Duration: 96 h from transfection to read-out. Treatment: vemurafenib 300 nM (about IC25), added 48 h after transfection, for 48 h; comparison arm got DMSO vehicle only. Read-out: 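Cell gain (DAPI nuclei at end minus before drug, mean of two replicates) and medium lactate by absorbance per cell, both as ratio to non-targeting siRNA, also grouped into fold-change classes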. Direction: cell gain with vemurafenib: higher = more cell gain than with non-targeting siRNA; lactate per cell with vemurafenib: higher = more lactate made per cell. Hit rule: 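Enhancement is called by pairing each knock-down's vehicle-arm and drug-arm fold-change classes for viability or glycolysis; which class combinations qualify is not given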. Calls: active = enhances vemurafenib effect; inactive = no enhancement seen.
This is an unselected part of about 18,000 reagents. In the full data, 790 (4.4%) were called active. 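Calls rest on a combination of fold-change classes in drug and vehicle arms, not all shown here.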

no.	gene	cell gain with vemurafenib	lactate per cell with vemurafenib	Outcome
1	TNFRSF9	0.45	1.65	inactive
2	TGDS	0.62	1.23	inactive
3	TMPRSS11E	0.47	1.3	inactive
4	BTN2A3P	0.74	0.81	inactive
5	CPT1A	0.71	1.44	inactive
6	CLRN1	0.44	1.46	inactive
7	IBSP	0.02	1.58	inactive
8	ID3	0.83	0.82	inactive
9	ENPP2	0.13	0.94	inactive
10	TRIM40	1.01	0.78	inactive
11	OR5B12	1.18	0.46	inactive
12	AK2	0.23	1.25	inactive
13	AUNIP	0.69	0.46	inactive
14	EXOC4	0.9	0.88	inactive
15	ZNF433	0.61	0.88	inactive
16	TLCD1	0.63	0.76	inactive
17	DCAF12	0.65	1	inactive
18	MEGF8	1.01	0.97	inactive
19	INTS8	0.53	1.17	inactive
20	VN1R5	0.82	0.6	inactive
21	HDGFL3	0.86	0.84	inactive
22	CCL4L2	0.9	0.6	inactive
23	AHCYL2	0.47	1.04	inactive
24	NUP188	0.45	0.84	inactive
25	KTN1	0.41	0.74	inactive
26	GAGE2C	0.56	0.9	inactive
27	NRSN1	0.87	1.23	inactive
28	EFNB1	0.21	1.66	inactive
29	SSUH2	0.97	0.78	inactive
30	OR7G2	0.47	1.56	inactive
31	WDR4	0.52	2.21	inactive
32	DSG4	0.17	0.66	inactive
33	LHFPL2	0.59	0.62	inactive
34	SLC22A13	0.53	0.89	inactive
